{"source": "the supplement of paper PMC7752906", "note": "Structures can show the parent of a compound that is named as a salt. This is one part of the list. This data set is noisy: repeats of one test often differ as much as different tests do.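 Wells held roughly 40 S. mansoni schistosomula, imaged in bright field over time against wells given 0.1% DMSO. The paper defines hits as drugs with a Mahalanobis distance of at least 2.47, three standard deviations above the DMSO control mean. Degeneracy is the proportion of worms classified as opaque.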", "data": [{"test_system": "Schistosoma mansoni schistosomula", "assay": "degeneracy (percent of somules classified as degenerate/opaque); higher = more parasite degeneration/death; extreme values may be limits of the assay", "conditions": "10 µM; 72 h", "units": {"degeneracy": "%"}, "values": [{"smiles": "C[N+](C)(C)CC(=O)O", "note": "[Betaine]", "degeneracy": 0}, {"smiles": "C[C@]12CC[C@@H]3c4ccc(OC(=O)c5ccccc5)cc4CC[C@H]3[C@@H]1CC[C@@H]2O", "note": "[Estradiol Benzoate]", "degeneracy": 0}, {"smiles": "CN1CCN(C(c2ccccc2)c2ccccc2)CC1", "note": "[Cyclizine]", "degeneracy": 0}, {"smiles": "C[C@@H](O)[C@@H]1NC(=O)[C@H](CCCCN)NC(=O)[C@@H](Cc2c[nH]c3ccccc23)NC(=O)[C@H](Cc2ccccc2)NC(=O)[C@@H](NC(=O)[C@H](N)Cc2ccccc2)CSSC[C@@H](C(=O)N[C@H](CO)[C@@H](C)O)NC1=O", "note": "[Octreotide]", "degeneracy": 6.45}, {"smiles": "O=C(CCCN1CCN(c2ccccn2)CC1)c1ccc(F)cc1", "note": "[Azaperone]", "degeneracy": 0}, {"smiles": "CC1CC(OC(=O)c2ccccc2O)CC(C)(C)C1", "note": "(configuration not stated) [Homosalate]", "degeneracy": 8.82}, {"smiles": "N[C@@H](Cc1cc(I)c(Oc2ccc(O)c(I)c2)c(I)c1)C(=O)O", "note": "[Liothyronine]", "degeneracy": 6.45}, {"smiles": "CN1CCC(=C2c3ccccc3Sc3ccccc32)CC1", "note": "[Pimethixene Maleate]", "degeneracy": 100}, {"smiles": "N[C@@H](Cc1c[nH]c2ccccc12)C(=O)O", "note": "[Tryptophan]", "degeneracy": 16.7}, {"smiles": "O=C(OOC(=O)c1ccccc1)c1ccccc1", "note": "[Benzoyl Peroxide]", "degeneracy": 8.57}, {"smiles": "CC(O)Cn1cnc2c1c(=O)n(C)c(=O)n2C", "note": "(configuration not stated) [Proxyphylline]", "degeneracy": 10}, {"smiles": "NC(=O)CCCCC1CCSS1", "note": "(configuration not stated) [Lipoamide]", "degeneracy": 5.56}, {"smiles": "C=C(C)[C@H]1CC=C(C)CC1", "note": "[D-limonene]", "degeneracy": 0}, {"smiles": "Cc1c(NC(=O)c2cccnc2)c(=O)n(-c2ccccc2)n1C", "note": "[Nifenazone]", "degeneracy": 11.4}, {"smiles": "CN1C(=O)CC[C@H]1c1cccnc1", "note": "[Cotinine]", "degeneracy": 15.8}, {"smiles": "CC[C@@H]1C(=O)OC[C@@H]1Cc1cncn1C", "note": "[Pilocarpine]", "degeneracy": 5.88}, {"smiles": "O=c1oc2c(O)c(O)cc3c(=O)oc4c(O)c(O)cc1c4c23", "note": "[Ellagic Acid]", "degeneracy": 7.5}, {"smiles": "COc1cccc2c1C(=O)c1c(O)c3c(c(O)c1C2=O)C[C@@](O)(C(C)=O)C[C@@H]3O[C@H]1C[C@H](N)[C@H](O)[C@H](C)O1", "note": "[Daunorubicin]", "degeneracy": 25}, {"smiles": "C=CC1=C(C(=O)O)N2C(=O)[C@@H](NC(=O)/C(=N\\O)c3csc(N)n3)[C@H]2SC1", "note": "[cefdinir]", "degeneracy": 3.23}, {"smiles": "OCc1ccccc1O[C@@H]1O[C@H](CO)[C@@H](O)[C@H](O)[C@H]1O", "note": "[Salicin]", "degeneracy": 6.06}, {"smiles": "CC(=O)NS(=O)(=O)c1ccc(N)cc1", "note": "[Sulfacetamide]", "degeneracy": 3.85}, {"smiles": "COc1ccc2cc([C@H](C)C(=O)O)ccc2c1", "note": "[Naproxen]", "degeneracy": 7.41}, {"smiles": "Nc1cc(N2CCCCC2)nc(N)[n+]1[O-]", "note": "[Minoxidil]", "degeneracy": 4.76}, {"smiles": "O=C(O)c1ccccc1OP(=O)(O)O", "note": "[Fosfosal]", "degeneracy": 11.8}, {"smiles": "C/C=C(/C(=C/C)c1ccc(O)cc1)c1ccc(O)cc1", "note": "[Dienestrol]", "degeneracy": 100}, {"smiles": "Cc1ncc([N+](=O)[O-])n1CC(C)O", "note": "(configuration not stated) [Secnidazole]", "degeneracy": 7.69}, {"smiles": "CCC(NC(C)C)C(O)c1ccc(O)c2[nH]c(=O)ccc12", "note": "(configuration not stated) [Procaterol Hcl Hemihydrate]", "degeneracy": 7.69}, {"smiles": "CC1(C)S[C@@H]2[C@H](NC(=O)[C@H](N)c3ccccc3)C(=O)N2[C@H]1C(=O)O", "note": "[Ampicillin Sodium]", "degeneracy": 8.11}, {"smiles": "O=c1n(CCCN2CCN(c3cccc(Cl)c3)CC2)nc2ccccn12", "note": "[Trazodone]", "degeneracy": 4.08}, {"smiles": "CC(=O)NCCCCCC(=O)O", "note": "[Acexamic Acid]", "degeneracy": 5.13}, {"smiles": "O=C(O)c1cc(=O)[nH]c(=O)[nH]1", "note": "[Orotic Acid]", "degeneracy": 4}, {"smiles": "Cc1nc2ccccn2c(=O)c1CCN1CCC(C(=O)c2ccc(F)cc2)CC1", "note": "[Pirenperone]", "degeneracy": 8.33}, {"smiles": "O=C(CCNNC(=O)c1ccncc1)NCc1ccccc1", "note": "[Nialamide]", "degeneracy": 7.69}, {"smiles": "CCCCC[C@H](O)/C=C/[C@H]1[C@H](O)CC(=O)[C@@H]1C/C=C\\CCCC(=O)O", "note": "[Dinoprostone]", "degeneracy": 6.25}, {"smiles": "NC(=O)c1cnccn1", "note": "[Pyrazinamide]", "degeneracy": 0}, {"smiles": "CC(=O)O[C@H]1C(=O)[C@@]2(C)[C@H]([C@H](OC(=O)c3ccccc3)[C@]3(O)C[C@H](OC(=O)[C@H](O)[C@@H](NC(=O)c4ccccc4)c4ccccc4)C(C)=C1C3(C)C)[C@]1(OC(C)=O)CO[C@@H]1C[C@@H]2O", "note": "[Taxol, Paclitaxel]", "degeneracy": 21.7}, {"smiles": "CCCN(CCC)CCc1cccc2c1CC(=O)N2", "note": "[Ropinirole Hydrochloride]", "degeneracy": 9.68}, {"smiles": "C/C=C/c1ccc(OC)cc1", "note": "[Anethole]", "degeneracy": 8.89}, {"smiles": "CC(=O)N(c1onc(C)c1C)S(=O)(=O)c1ccc(N)cc1", "note": "[Sulfisoxazole Acetyl]", "degeneracy": 5.13}, {"smiles": "C[C@@H](O[C@H]1OCCN(Cc2n[nH]c(=O)[nH]2)[C@H]1c1ccc(F)cc1)c1cc(C(F)(F)F)cc(C(F)(F)F)c1", "note": "[Aprepitant]", "degeneracy": 100}, {"smiles": "CC(N)CCCC(C)(C)O", "note": "(configuration not stated) [Heptaminol Hydrochloride]", "degeneracy": 6.67}, {"smiles": "CC(C)OC(=O)C(C)(C)Oc1ccc(C(=O)c2ccc(Cl)cc2)cc1", "note": "[Fenofibrate]", "degeneracy": 55.6}, {"smiles": "CCOC(=S)SSC(=S)OCC", "note": "[Dixanthogen]", "degeneracy": 0}, {"smiles": "Cc1cc2c(s1)Nc1ccccc1N=C2N1CCN(C)CC1", "note": "[Olanzapine]", "degeneracy": 8.33}, {"smiles": "O=C(O)c1ccccc1O", "note": "[Salicylic Acid]", "degeneracy": 12.5}, {"smiles": "CCOc1ccc2nc(S(N)(=O)=O)sc2c1", "note": "[Ethoxzolamide]", "degeneracy": 0}, {"smiles": "O=C(O)c1cc(/N=N/c2ccc(S(=O)(=O)Nc3ccccn3)cc2)ccc1O", "note": "[Sulfasalazine]", "degeneracy": 12.5}, {"smiles": "CO[C@H]1/C=C/O[C@@]2(C)Oc3c(C)c(O)c4c(O)c(c(/C=N/N5CCN(C)CC5)c(O)c4c3C2=O)NC(=O)/C(C)=C\\C=C\\[C@H](C)[C@H](O)[C@@H](C)[C@@H](O)[C@@H](C)[C@H](OC(C)=O)[C@@H]1C", "note": "[Rifampin]", "degeneracy": 22.2}, {"smiles": "Cc1c(Cl)cccc1Nc1ccccc1C(=O)O", "note": "[Tolfenamic Acid]", "degeneracy": 100}, {"smiles": "Cc1ccc(N(CC2=NCCN2)c2cccc(O)c2)cc1", "note": "[Phentolamine]", "degeneracy": 7.14}, {"smiles": "O=C1c2c(O)cc(CO)cc2C(OC2OC(CO)C(O)C(O)C2O)c2cccc(OC3OC(CO)C(O)C(O)C3O)c21", "note": "(configuration not stated) [Casanthranol [cascaroside A Shown]]", "degeneracy": 7.5}, {"smiles": "O=C(O)c1ccccc1-c1c2cc(I)c(=O)c(I)c-2oc2c(I)c(O)c(I)cc12", "note": "[Erythrosine Sodium]", "degeneracy": 9.09}]}]}
